This is a noisy data set.
B1: human tRNA-Pro; a variant is named by its letters at N, in order (parent)
chain: GGCTCGTTGGTCTAGNGGTATGATTCTCGCTTAGGGTGCGAGAGGTCCCGGGTTCNNATCCCGGACGAGCCC

Variants of: B1
Test: tRNA 3' processing efficiency (processed reads / all reads, maximum-likelihood estimate) (fraction); higher = more efficient 3' processing
Settings: HEK293T; construct: no Pol-II promoter ((-)CMV library)

tRNA 3' processing efficiency, 0.25:
GGA T8C T53G T59G
GGA A23T C55G
GGG T8A A14G G18C T19A
TGT G17T T59G
GGC A14G C55T
GGA A14G G18A T53G A58G
GGA G9T A14G G18T
GGA G15T G17T T53A
GTA A14C G15C T19A T59G
TGA T19A A20C T53A T54A C55A
GGA G15C A20T T53G
TGA C55G A58T T59G
GGA G15C T53A T59G
GGA G15A A33G
GGA T8C A33G A58T
GGA A14T T53A A58G
GGA T8C A58G T59C
TGG A20T
GCT A14C

tRNA 3' processing efficiency, 0.29:
GGG T8C A58T
GTA A14C G17C T19G T59G
TGA G9A A58C

tRNA 3' processing efficiency, 0.38:
GGA T19G C55G A58G

tRNA 3' processing efficiency, 0.7:
GGA T8G G18A T53G

tRNA 3' processing efficiency, 0.73:
GGA T8C T19A A58T

tRNA 3' processing efficiency, 0.57:
AGA C55T A58T
GGA A14C G18T T19C T53A
TGA G18C T19C C55T

tRNA 3' processing efficiency, 0.62:
GGA A20C T53A A58T T59C
GGA A20T C55T T59A
CTA A14C A20G A58G
CGA G9A A20G A33G A58T

tRNA 3' processing efficiency, 0.06:
TGA T19G T53G

tRNA 3' processing efficiency, 0.6:
TGA G17A A58C

tRNA 3' processing efficiency, 0.33:
CGA G9T T54A A58G
CTA A14C T19G
GGA G15A A33G A58T
TGG A14G
AGG T19C
GGA T19G C55G A58T
GGA A14G G17A A58G T59G
GGA A14C T19A C55T A58G

tRNA 3' processing efficiency, 0.14:
GGA G15T G17T T19G T53G

tRNA 3' processing efficiency, 0.13:
CGT G9A

tRNA 3' processing efficiency, 0.69:
AGA A20G T54A
GGA T19C G50A

tRNA 3' processing efficiency, 0.17:
GGA G9A T19A C55T
CGA A14G G17C A20G T53G
GCC T8C G15A
AGA A14C T53G
GGA A14C G15C A58C
AGC T59G

tRNA 3' processing efficiency, 0.4:
GGA G17T G18A T19A A20T A58C
TGA T8C A14C A58T
GGA T8G T19C A58G T59A
TGA G9T C55T A58C
GGA G9A A14G A58C
GGG A14G G15C G18A
GGA A14C G15C A20G C55A A58T
GGG G9A T19A A20T T53A
CGA G9A A14T C55T
GGA G34A A58G T59G
GGA G51A T59C

tRNA 3' processing efficiency, 0.43:
GGA T19A A20T A58C T59A

tRNA 3' processing efficiency, 0.2:
GGA T19A T53A C55G
GGT T19A T59C
GCC A14T T19A A58G
TGA T19G T53G A58G
TGG G18C T19C A20T A33T
GCC A14T T19G
GCC A14T T19A
GGA G50C A58G
TCC G15C

tRNA 3' processing efficiency, 0.5:
GGA T19A G51A T59A
AGC A20C
TTA A14C G15A T53A
CGA T53A C55T

tRNA 3' processing efficiency, 0.24:
AGA G9A C55G

tRNA 3' processing efficiency, 0.84:
GGA G1A T8C

tRNA 3' processing efficiency, 0.64:
GGC T8C T59G

tRNA 3' processing efficiency, 0.08:
GGA A14C T54A
GGG T8C G18A

tRNA 3' processing efficiency, 0.44:
GGA T19C T53C C55T

tRNA 3' processing efficiency, 0.8:
GGC G2A A14T A58T
